{
  "source": "PubChem BioAssay AID256",
  "about": "(DTP/NCI, 2004)",
  "test_system": "CD2F1 mice, L1210 leukemia ip, survival T/C",
  "assay": "NCI In Vivo Anticancer Drug Screen. Data for tumor model L1210 Leukemia (intraperitoneal) in CD2F1 (CDF1) mice",
  "settings": "T/C endpoint: mean survival time, higher T/C = longer survival",
  "in_short": "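Ratio T/C, where T is the treated-group value and C the vehicle-dosed control value, from mice implanted with a transplantable tumor.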",
  "key": {"[1]": {"settings": "dose: 400.0 mg/kg/injection, schedule: Q01DX009 (ip), vehicle: saline with Tween-80"}, "[2]": {"settings": "dose: 12.5 mg/kg/injection, schedule: Q04DX003 (ip), vehicle: other"}},
  "note": "The list does not hold the whole screen: it is rich in T/C values a quarter to a half above the control, in often repeated tests (any T/C) and in doses without a T/C. Other doses and runs of a compound stand elsewhere. T/C: endpoint of the treated group in % of that of the vehicle group. Some doses have a count of surviving animals in place of a T/C: the source holds a T/C of zero for them, seemingly a mark for toxic or unscored doses. Some doses without a T/C left all or most animals alive at the check, yet need not have been tolerated: survival well below the control is almost never listed, so the zero probably covers shortened survival too. Survivors were counted at the toxicity check, usually on the fifth day, unless a day is given; later deaths do not show. Schedule codes are those of the source, taken here to give the interval after Q, in days (D) or hours (H), and the number of doses after X. Some entries hold several experiments; their values stand side by side, smallest first. Where survival is the endpoint, this PubChem deposit counts one and a half times the control or more as active, and values a quarter to a half above the control carry no call in these data; other NCI protocols may use other cut-offs. Some T/C values carry the count of animals alive at the toxicity check (mostly the fifth day); without a count, all were alive then.",
  "data": [
    {"smiles": "C=C1C[C@@H](O)[C@H](O)[C@@]2(C)C[C@@H]3OC(=O)C(=C)[C@@H]3C[C@H]12", "values": [
      {"measurement": "survivor count", "setting": "dose: 200.0 mg/kg/injection, schedule: Q01DX009 (ip), vehicle: saline with Tween-80", "value": "2 of 6"},
      {"measurement": "survivor count", "setting": "[1]", "value": "0 of 6"}
    ]},
    {"smiles": "COc1nc(NC(C)C)nc(NC(C)C)n1", "values": [
      {"measurement": "survivor count", "setting": "dose: 400.0 mg/kg/injection, schedule: Q04DX003 (ip), vehicle: saline", "value": "3 of 6"}
    ]},
    {"smiles": "Cn1c2c(c3ccccc31)C(=O)CC2(C)C", "values": [
      {"measurement": "survivor count", "setting": "dose: 200.0 mg/kg/injection, schedule: Q04DX003 (ip), vehicle: saline with Tween-80", "value": "4 of 6"},
      {"measurement": "survivor count", "setting": "dose: 400.0 mg/kg/injection, schedule: Q01DX001 (ip), vehicle: saline with Tween-80", "value": "1 of 6"}
    ]},
    {"smiles": "CC([NH-])C(C)[NH-].CC([NH-])C(C)[NH-].[Cl][Co][Cl]", "note": "(stereo not drawn)", "values": [
      {"measurement": "T/C", "setting": "dose: 200.0 mg/kg/injection, schedule: Q04DX002 (ip), vehicle: saline", "value": "132 % of control [2 of 3 alive]"},
      {"measurement": "survivor count", "setting": "dose: 400.0 mg/kg/injection, schedule: Q04DX002 (ip), vehicle: saline", "value": "0 of 3"}
    ]},
    {"smiles": "CONC(=O)c1ccccc1N=NN(C)C", "values": [
      {"measurement": "survivor count", "setting": "dose: 75.0 mg/kg/injection, schedule: Q01DX009 (ip), vehicle: Klucel (hydroxypropylcellulose) (HPC)", "value": "4 of 6"},
      {"measurement": "survivor count", "setting": "dose: 150.0 mg/kg/injection, schedule: Q01DX009 (ip), vehicle: Klucel (hydroxypropylcellulose) (HPC)", "value": "0 of 6 and 1 of 6"},
      {"measurement": "survivor count", "setting": "dose: 300.0 mg/kg/injection, schedule: Q01DX009 (ip), vehicle: Klucel (hydroxypropylcellulose) (HPC)", "value": "0 of 6"}
    ]},
    {"smiles": "Cc1c2ccncc2c(C)c2c1[nH]c1ccc(O)cc12", "values": [
      {"measurement": "T/C", "setting": "[2]", "value": "136 % of control"},
      {"measurement": "T/C", "setting": "dose: 25.0 mg/kg/injection, schedule: Q04DX003 (ip), vehicle: other", "value": "141 % of control"},
      {"measurement": "T/C", "setting": "dose: 33.3 mg/kg/injection, schedule: Q04DX003 (ip), vehicle: water", "value": "130 % of control [5 of 6 alive]"},
      {"measurement": "T/C", "setting": "dose: 50.0 mg/kg/injection, schedule: Q04DX003 (ip), vehicle: water", "value": "129 and 148 % of control"},
      {"measurement": "survivor count", "setting": "dose: 200.0 mg/kg/injection, schedule: Q04DX003 (ip), vehicle: water", "value": "6 of 6"},
      {"measurement": "survivor count", "setting": "dose: 400.0 mg/kg/injection, schedule: Q04DX003 (ip), vehicle: water", "value": "4 of 6"}
    ]},
    {"smiles": "COc1cc(OC)cc(C2=NNc3n[nH]c(=S)n3N2)c1", "values": [
      {"measurement": "survivor count", "setting": "[1]", "value": "3 of 6"}
    ]},
    {"smiles": "O=C(O)C(O)C(O)C(O)C(O)CO.O=C(O)C(O)C(O)C(O)C(O)CO.[NH-]C1CCCCC1[NH-].[Pt+2]", "note": "(stereo not drawn)", "values": [
      {"measurement": "T/C", "setting": "dose: 6.25 mg/kg/injection, schedule: Q04DX003 (ip), vehicle: other", "value": "127 % of control"},
      {"measurement": "T/C", "setting": "dose: 6.25 mg/kg/injection, schedule: Q04DX003 (ip), vehicle: saline", "value": "139 % of control"},
      {"measurement": "T/C", "setting": "[2]", "value": "143 % of control"},
      {"measurement": "T/C", "setting": "dose: 12.5 mg/kg/injection, schedule: Q04DX003 (ip), vehicle: saline", "value": "132 % of control"},
      {"measurement": "T/C", "setting": "dose: 25.0 mg/kg/injection, schedule: Q04DX003 (ip), vehicle: saline", "value": "148 % of control"},
      {"measurement": "survivor count", "setting": "dose: 100.0 mg/kg/injection, schedule: Q04DX003 (ip), vehicle: other", "value": "9 of 10"}
    ]},
    {"smiles": "NC(N)=NCCNC(=O)C1CCC(N)C1", "note": "(stereo not drawn)", "values": [
      {"measurement": "survivor count", "setting": "dose: 2.5 mg/kg/injection, schedule: Q01DX009 (ip), vehicle: saline", "value": "6 of 6"},
      {"measurement": "survivor count", "setting": "dose: 5.0 mg/kg/injection, schedule: Q01DX009 (ip), vehicle: saline", "value": "6 of 6"}
    ]},
    {"smiles": "COC(=O)c1cc(Cl)cc(C(=O)OC)c1", "values": [
      {"measurement": "survivor count", "setting": "[1]", "value": "6 of 6"}
    ]},
    {"smiles": "Cc1cn([C@@H]2C[C@H](CO)[C@@H](O)C2)c(=O)[nH]c1=O", "values": [
      {"measurement": "T/C", "setting": "dose: 250.0 mg/kg/injection, schedule: Q01DX009 (ip), vehicle: saline", "value": "126 % of control"},
      {"measurement": "T/C", "setting": "dose: 300.0 mg/kg/injection, schedule: Q01DX009 (ip), vehicle: saline", "value": "129 and 132 % of control"}
    ]},
    {"smiles": "CN(C)c1nc2c(c(=O)n(C)c(=O)n2C)n1C", "values": [
      {"measurement": "survivor count", "setting": "dose: 200.0 mg/kg/injection, schedule: Q01DX005 (ip), vehicle: distilled water + Tween-80", "value": "1 of 6"}
    ]},
    {"smiles": "CC(=O)NC1CCC(C(C)C)CC1", "note": "(stereo not drawn)", "values": [
      {"measurement": "survivor count", "setting": "dose: 100.0 mg/kg/injection, schedule: Q01DX001 (ip), vehicle: saline with Tween-80", "value": "1 of 6"},
      {"measurement": "survivor count", "setting": "dose: 200.0 mg/kg/injection, schedule: Q01DX001 (ip), vehicle: saline with Tween-80", "value": "0 of 6"}
    ]},
    {"smiles": "CN1CCc2[nH]c3ccccc3c2C1", "values": [
      {"measurement": "survivor count", "setting": "dose: 300.0 mg/kg/injection, schedule: Q01DX001 (ip), vehicle: other", "value": "0 of 6"},
      {"measurement": "survivor count", "setting": "dose: 400.0 mg/kg/injection, schedule: Q04DX002 (ip), vehicle: Klucel (hydroxypropylcellulose) (HPC)", "value": "0 of 3"}
    ]}
  ]
}
